Measurements as given in article doi:10.1101/2023.03.07.531462.
No constants are given. Whether binding was seen depends on the method and setting. In cells and extracts the contact can be indirect. Here binding means that the protein was enriched with, or labelled near, the bait; the list need not be complete.

The substances below were run against TbMsp1-HA (in situ C-terminally triple HA-tagged TbMsp1) (Trypanosoma brucei) (UniProt Q57W41) (assay: affinity purification with mass spectrometry).

| Substance | binding |
| --- | --- |
| POMP19, endogenous (from UniProt Q38CI9) | binds |
| TbJ31, endogenous (from UniProt Q57VU5) | binds |
| peroxisome biogenesis protein Pex11 (Tb927.11.11520) (from UniProt Q383C6) | binds |
| glycosomal metabolite transporter GAT1 (Tb927.4.4050) (from UniProt Q57Y09) | binds |
| protein of the mitochondrial OM proteome 31 (POMP31), endogenous (from UniProt Q585W6) | binds |
| cytosolic fumarate hydratase (Tb927.3.4500) (from UniProt Q580J2) (enzyme) | binds |
| TbTsc13, endogenous (from UniProt Q57ZC7) | binds |
| glycosomal metabolite transporter GAT2 (Tb927.11.3130) (from UniProt Q386J8) | binds |
